Reference: publication PMC6336269
No constants are given. Whether binding was seen depends on the method and setting. Binding seen in cells or lysates may run through a third protein. A yes stands for co-enrichment or nearness to the bait. Other partners may have been found. For part of these data: Sequences can lack the tags named with a protein.

The chains behind the UniProt entries cited, without tags or fusion partners. Where a name states a change or a piece, a line headed by the entry shows the natural chain unless it says otherwise.
UniProt P40160: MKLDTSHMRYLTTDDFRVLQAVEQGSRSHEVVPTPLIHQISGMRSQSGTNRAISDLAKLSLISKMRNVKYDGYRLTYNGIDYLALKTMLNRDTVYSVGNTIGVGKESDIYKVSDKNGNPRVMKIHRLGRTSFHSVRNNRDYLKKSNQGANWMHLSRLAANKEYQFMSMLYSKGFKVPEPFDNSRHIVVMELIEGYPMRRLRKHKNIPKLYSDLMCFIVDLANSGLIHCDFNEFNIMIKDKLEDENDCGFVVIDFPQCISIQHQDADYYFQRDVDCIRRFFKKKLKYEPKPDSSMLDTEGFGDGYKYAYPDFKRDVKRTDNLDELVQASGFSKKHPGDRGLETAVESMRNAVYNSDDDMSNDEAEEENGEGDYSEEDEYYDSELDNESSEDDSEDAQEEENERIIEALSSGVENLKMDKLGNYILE
UniProt P32905: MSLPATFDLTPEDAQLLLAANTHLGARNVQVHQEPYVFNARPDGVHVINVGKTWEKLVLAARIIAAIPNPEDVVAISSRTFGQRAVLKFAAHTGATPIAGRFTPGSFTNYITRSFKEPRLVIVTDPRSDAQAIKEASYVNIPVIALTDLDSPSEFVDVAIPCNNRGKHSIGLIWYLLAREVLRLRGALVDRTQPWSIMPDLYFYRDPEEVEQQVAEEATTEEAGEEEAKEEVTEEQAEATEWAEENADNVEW
UniProt P41819: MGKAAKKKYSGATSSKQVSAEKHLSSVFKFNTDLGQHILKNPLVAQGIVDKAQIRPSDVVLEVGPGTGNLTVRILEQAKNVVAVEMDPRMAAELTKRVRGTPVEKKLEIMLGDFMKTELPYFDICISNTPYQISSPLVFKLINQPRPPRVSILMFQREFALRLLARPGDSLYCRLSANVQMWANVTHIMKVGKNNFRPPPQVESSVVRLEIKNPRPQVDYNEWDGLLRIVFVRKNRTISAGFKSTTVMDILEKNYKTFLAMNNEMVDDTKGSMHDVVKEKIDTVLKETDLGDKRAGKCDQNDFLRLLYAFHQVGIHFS
UniProt P0C0V8: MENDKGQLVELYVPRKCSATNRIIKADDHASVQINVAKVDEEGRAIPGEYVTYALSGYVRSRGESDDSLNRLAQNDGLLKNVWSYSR
UniProt Q08745: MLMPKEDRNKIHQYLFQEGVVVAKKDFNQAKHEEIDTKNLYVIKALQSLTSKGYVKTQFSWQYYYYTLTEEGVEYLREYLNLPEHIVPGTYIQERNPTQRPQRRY
UniProt P02407: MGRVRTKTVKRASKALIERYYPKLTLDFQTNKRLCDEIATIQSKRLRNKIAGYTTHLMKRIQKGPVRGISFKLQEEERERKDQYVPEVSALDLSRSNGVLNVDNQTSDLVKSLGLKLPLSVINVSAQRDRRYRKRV

T1: TAP tagged Slx9 (S. cerevisiae) (UniProt P53251)
T1 sequence: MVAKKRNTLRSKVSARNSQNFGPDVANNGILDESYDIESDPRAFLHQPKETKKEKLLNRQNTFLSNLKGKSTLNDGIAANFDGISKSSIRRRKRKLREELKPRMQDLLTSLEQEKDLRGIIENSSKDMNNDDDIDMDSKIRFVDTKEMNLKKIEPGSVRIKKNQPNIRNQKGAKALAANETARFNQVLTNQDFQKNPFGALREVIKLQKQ

B1: Tsr1 (protein, UniProt Q07381 1-788)
chain: MAGHSHRSSLKNGHKSYKSKHASKGALKRLYKGKVEKEPVGTGKPDKQVSKLQRKNKAKQLRAQRILDSIENRKLFEGKNGAAKIITIVPLVNDLDPLDILYKLLKCADDEGIMVQEVDSKRIFNVHIKKFKSNLKIIIPDMTNFLNILDCAKVADFVVFGLSGVQEVDEEFGEQIIRALELQGIASYIGVISNLSAVHEKEKFQLDVKQSLESYFKHFFPSEERVYNLEKNSDALNVLRTLCQRLPRSINWRDNRGYVVADFVDFVETSPDSGDLVIEGTVRGIGFNANRLVHIPDFGDFQLNKIEKISESSQKRKIIKEKATDSLSLELDLQTVFESNMNRDTLDEYAPEGTEDWSDYDEDFEYDGLTTARYDDHGFLPGREQTSKKAAVPKGTSDYQAKWYLDDVIDANEEEEAEQTNGKDETMMEIDDEMMVEQDNEEVAGDEEYDIEDNEGFEELSPEEEERQLREFRDMEKEDREFPDEIELEPSESAIERLKRYRGLKNLYNCDWQVDEKDPSSPAEWKRLLRIGNYKNTKNRIIKETKNEAQAIAGDRIRMFIRFPKFLLEKIQDPKQLLFAVYGLLLHEHKNAVVNFSLQRWEQYDKPVPSQEPIVVQYGVRRYTIQPLFSQGSNSPNNVHKYERFLHPDTVSVATCIAPVDFTQSPAIFFKPSPTDAKNIELIGHGTFLNADHSRILAKRAILTGHPFRFHKTVVTVRYMFFRPEDVEWFKSIPLFTKSGRSGFIKESLGTHGYFKATFDGKLSAQDVVAMSLYKRMWPMPSLPWNGM
B2: Rrp12 (protein, UniProt Q12754 1-1228)
chain: MDQDKVAFLLELEDKLAKIRSQVNSKLENQKHIAIILTAVEENIAGQATNDVSKNIVNYIISFMSLLDQAVDPSTHEIKDIQLASSSTYLLDLIFHYSPKVLLRSKFSEILTKIAPCITAEKANAPLIRAAIGCLESLLIAQDAQAWNNTYDLNVTPKRGLQGILELSLDVRPKVRKRALDAVHAVLLNPPVAPTAEHVAAVFVADFCDKQLAGILNDLSNLSNKQLKAQKTKEDINASVMRSLRLITSVVSTGQWPSSQIEPLCDVLLGVTKSSEQYLVSASFECFESMFKTMAETTISSGLAENKYLRVLDTIFALKPSNVDTLLTKSWIAVVIKGMSTYATHQPLKALRKIPGVFHIMCTYLASETPEVYQAASQCLISILSESVKDDLLLYTPSVDEKVFKNVDEIISQIAKTFIDFLSIRYSHCSREILKILVAAFNKFRYRSNPHFLKSLKIVDTWRVNEEQFMDLRNEIELVIGASISAMGPEMILAEAPLNLDNPSSERPGRAWLLPLIRDYTKNANLATFQNELAPYIKSFQSKFDKVPEESIQLRVFQTIVDQIWSTLPRFCELPMDLRESFTDEFASELSSLLYSEVELRTTICHALKVLAESNVSYAEESSSHNVLLLQRFPISEAQKNIEYLSTKSTNLLAVLFNVYTQTTPNARSYILETIDQYLKITSKEDLEKTFNNVCGLLKNSMNEESSGNVNKEKKKPQLTATLLDLIICMITYLPVSSYSALFSMFSLTVNSADALIQKRAYRIITKLSELKSGSTAVAQFISDIENVMVDSASSVQTSAKAARLTAIKTIVELLPLDHLDFIVRTVAEVILSTKDVNEKSRETAFDTLICMGRKMNEPNGIIKLFQIPGYDPTTPDQSSSISEFFKIISAGLIGESQHMVSSSITGYACLVFEFKNELDSGILMDIYDTIELYLTSNSREIVKSAIGFTKVCVLGLPEELMRPKVPELLLKLLRWSHEHTGHFKAKVKHIIERLIRRFGYDYIEANFPEEDRRLLTNIRKMRNRNKRKDEEVTTGVSDVAATKGSRFMSAFDEAVYGSDEENDNGSDQEENVAGGKMKNGAKQFIVESGDNPLDLLDSQTLAHISSTRPKKFNKNQNRARFNDDAFNFDSEGKLVVKGQPKPSTNVDDPLSAVTSGINAYLEAVKSGPVRGQRNKLKFRKNGKDSDEFGDDDDGEKDSRLMRGRVNQGNKIGKHNKKGPKFKSRKKL
B3: Enp1 (protein, UniProt P38333 1-483)
chain: MARASSTKARKQRHDPLLKDLDAAQGTLKKINKKKLAQNDAANHDAANEEDGYIDSKASRKILQLAKEQQDEIEGEELAESERNKQFEARFTTMSYDDEDEDEDEDEEAFGEDISDFEPEGDYKEEEEIVEIDEEDAAMFEQYFKKSDDFNSLSGSYNLADKIMASIREKESQVEDMQDDEPLANEQNTSRGNISSGLKSGEGVALPEKVIKAYTTVGSILKTWTHGKLPKLFKVIPSLRNWQDVIYVTNPEEWSPHVVYEATKLFVSNLTAKESQKFINLILLERFRDNIETSEDHSLNYHIYRAVKKSLYKPSAFFKGFLFPLVETGCNVREATIAGSVLAKVSVPALHSSAALSYLLRLPFSPPTTVFIKILLDKKYALPYQTVDDCVYYFMRFRILDDGSNGEDATRVLPVIWHKAFLTFAQRYKNDITQDQRDFLLETVRQRGHKDIGPEIRRELLAGASREFVDPQEANDDLMIDVN
B4: rpS20 (uS10) (protein, UniProt P38701 1-121)
chain: MSDFQKEKVEEQEQQQQQIIKIRITLTSTKVKQLENVSSNIVKNAEQHNLVKKGPVRLPTKVLKISTRKTPNGEGSKTWETYEMRIHKRYIDLEAPVQIVKRITQITIEPGVDVEVVVASN
B5: Nob1 (protein, UniProt Q08444 1-459)
chain: MTENQTAHVRALILDATPLITQSYTHYQNYAQSFYTTPTVFQEIKDAQARKNLEIWQSLGTLKLVHPSENSIAKVSTFAKLTGDYSVLSANDLHILALTYELEIKLNNGDWRLRKKPGDALDASKADVGTDGKQKLTEDNKKEEDSESVPKKKNKRRGGKKQKAKREAREAREAENANLELESKAEEHVEEAGSKEQICNDENIKESSDLNEVFEDADDDGDWITPENLTEAIIKDSGEDTTGSLGVEASEEDRHVALNRPENQVALATGDFAVQNVALQMNLNLMNFMSGLKIKRIRNYMLRCHACFKIFPLPKDGKPKHFCASCGGQGTLLRCAVSVDSRTGNVTPHLKSNFQWNNRGNRYSVASPLSKNSQKRYGKKGHVHSKPQENVILREDQKEYEKVIKQEEWTRRHNEKILNNWIGGGSADNYISPFAITGLKQHNVRIGKGRYVNSSKRRS
B6: casein kinase type protein kinase Hrr25 (enzyme, UniProt P29295 1-494)
chain: MDLRVGRKFRIGRKIGSGSFGDIYHGTNLISGEEVAIKLESIRSRHPQLDYESRVYRYLSGGVGIPFIRWFGREGEYNAMVIDLLGPSLEDLFNYCHRRFSFKTVIMLALQMFCRIQYIHGRSFIHRDIKPDNFLMGVGRRGSTVHVIDFGLSKKYRDFNTHRHIPYRENKSLTGTARYASVNTHLGIEQSRRDDLESLGYVLIYFCKGSLPWQGLKATTKKQKYDRIMEKKLNVSVETLCSGLPLEFQEYMAYCKNLKFDEKPDYLFLARLFKDLSIKLEYHNDHLFDWTMLRYTKAMVEKQRDLLIEKGDLNANSNAASASNSTDNKSETFNKIKLLAMKKFPTHFHYYKNEDKHNPSPEEIKQQTILNNNAASSLPEELLNALDKGMENLRQQQPQQQVQSSQPQPQPQQLQQQPNGQRPNYYPEPLLQQQQRDSQEQQQQVPMATTRATQYPPQINSNNFNTNQASVPPQMRSNPQQPPQDKPAGQSIWL
B7: rpS3 (uS3) (protein, UniProt P05750 1-240)
chain: MVALISKKRKLVADGVFYAELNEFFTRELAEEGYSGVEVRVTPTKTEVIIRATRTQDVLGENGRRINELTLLVQKRFKYAPGTIVLYAERVQDRGLSAVAQAESMKFKLLNGLAIRRAAYGVVRYVMESGAKGCEVVVSGKLRAARAKAMKFADGFLIHSGQPVNDFIDTATRHVLMRQGVLGIKVKIMRDPAKSRTGPKALPDAVTIIEPKEEEPILAPSVKDYRPAEETEAQAEPVEA
B8: Asc1 (protein, UniProt P38011 1-319)
chain: MASNEVLVLRGTLEGHNGWVTSLATSAGQPNLLLSASRDKTLISWKLTGDDQKFGVPVRSFKGHSHIVQDCTLTADGAYALSASWDKTLRLWDVATGETYQRFVGHKSDVMSVDIDKKASMIISGSRDKTIKVWTIKGQCLATLLGHNDWVSQVRVVPNEKADDDSVTIISAGNDKMVKAWNLNQFQIEADFIGHNSNINTLTASPDGTLIASAGKDGEIMLWNLAAKKAMYTLSAQDEVFSLAFSPNRYWLAAATATGIKVFSLDPQYLVDDLRPEFAGYSKAAEPHAVSLAWSADGQTLFAGYTDNVIRVWQVMTAN
B9: rpS2 (uS5) (protein, UniProt P25443 1-254)
chain: MSAPEAQQQKRGGFGGRNRGRPNRRGPRNTEEKGWVPVTKLGRLVKAGKITTIEEIFLHSLPVKEFQIIDTLLPGLQDEVMNIKPVQKQTRAGQRTRFKAVVVVGDSNGHVGLGIKTAKEVAGAIRAGIIIAKLSVIPIRRGYWGTNLGQPHSLATKTTGKCGSVTVRLIPAPRGSGIVASPAVKKLLQLAGVEDVYTQSNGKTRTLENTLKAAFVAIGNTYGFLTPNLWAEQPLPVSPLDIYSDEASAQKKRF
B10: Slx9 (protein, UniProt P53251 1-210)
chain: T1 sequence

target: T1, TAP tagged Slx9 (S. cerevisiae); assay: affinity purification with mass spectrometry; TAP tagged Slx9 with associated SSU precursors purified from yeast cellular extracts on rabbit immunoglobulin G coupled to magnetic beads; semi-quantitative mass spectrometry with iTRAQ 4plex; wild type cells and cells shifted to glucose for four hours to deplete rpS2, rpS3 or rpS21

Row | binding | Molecule
1 | binds | Rio2 (from UniProt P40160 1-425)
2 | binds | B1
3 | binds | B2
4 | binds | B3

target: TAP tagged Rio2 (S. cerevisiae) (UniProt P40160); assay: affinity purification with mass spectrometry; TAP tagged Rio2 with associated SSU precursors purified from yeast cellular extracts on rabbit immunoglobulin G coupled to magnetic beads; semi-quantitative mass spectrometry with iTRAQ 4plex; wild type cells and cells shifted to glucose for two or four hours to deplete rpS0, rpS2, rpS21, rpS3, rpS20 or rpS29

Row | binding | Molecule
5 | binds | B4
6 | binds | B5
7 | binds | B6
8 | binds | B1
9 | binds | B7
10 | binds | B8
11 | binds | B9
12 | binds | B3
13 | binds | B10

target: TAP tagged Rio2 (S. cerevisiae) (UniProt P40160); assay: as above; remark: another data set of the same source

Row | binding | Molecule
14 | binds | rpS0 (uS2) (from UniProt P32905)
15 | binds | Dim1 (from UniProt P41819 1-318)
16 | binds | rpS21 (eS21) (from UniProt P0C0V8)
17 | binds | rpS10 (eS10) (from UniProt Q08745)
18 | binds | rpS17 (from UniProt P02407)
